Consider 16 molecules from PubChem BioAssay AID248 (DTP/NCI, 2004).

The list is a part of this screen's results and no random one: it is rich in T/C values a quarter to a half above the control, in often repeated tests (any T/C) and in doses without a T/C. Further doses and runs are listed elsewhere. T/C gives the treated animals as a percentage of the vehicle group. Some doses have a count of surviving animals in place of a T/C: the source files T/C as zero there, which appears to mark a toxic dose or a test without result, not a measured value. Some survivor counts are full or nearly so, which does not show that the dose was tolerated: the source hardly ever lists a survival T/C far under the control, and the zero likely stands for such cases as well. Counts of survivors are from the toxicity check (mostly the fifth day) where no day follows; animals may have died later. Schedules are NCI's codes, read here as Q, the interval in days (D) or hours (H), X, the number of doses. Some schedules carry Z or #; the key to these is not given. Some molecules as drawn cover several salts, stereoisomers or complexes of the source; a dose is that of the sample tested. Where survival is the endpoint, this PubChem deposit counts one and a half times the control or more as active, and values a quarter to a half above the control carry no call in these data; other NCI protocols may use other cut-offs. Some T/C values carry the count of animals alive at the toxicity check (mostly the fifth day); without a count, all were alive then.

This assay deals with L1210 leukemia ip in BDF1 mice, survival T/C. Nature of the assay: NCI In Vivo Anticancer Drug Screen. Data for tumor model L1210 Leukemia (intraperitoneal) in B6D2F1 (BDF1) mice. Particulars: T/C endpoint: mean survival time, higher T/C = longer survival.
[1] abbreviates: dose: 200.0 mg/kg/injection, schedule: Q04DX003 (ip), vehicle: saline with Tween-80.
[2] abbreviates: dose: 400.0 mg/kg/injection, schedule: Q01DX001 (ip), vehicle: saline.
[3] abbreviates: dose: 400.0 mg/kg/injection, schedule: Q04DX003 (ip), vehicle: saline with Tween-80.
Setting [4] is: dose: 25.0 mg/kg/injection, schedule: Q01DX009 (ip), vehicle: saline.
Setting [5] is: dose: 200.0 mg/kg/injection, schedule: Q04DX003 (ip), vehicle: saline.
Where [6] appears, read: dose: 400.0 mg/kg/injection, schedule: Q04DX003 (ip), vehicle: saline.
Where [7] appears, read: dose: 400.0 mg/kg/injection, schedule: Q01DX009 (ip), vehicle: saline.

As for `COc1ccc([I+]c2ccccc2)cc1`, the survivor count is reported as 2 of 6 (dose: 18.0 mg/kg/injection, schedule: Q01DX009 (ip), vehicle: saline); 0 of 6 (dose: 36.0 mg/kg/injection, schedule: Q01DX009 (ip), vehicle: saline); 0 of 6 (dose: 56.0 mg/kg/injection, schedule: Q04DX003 (ip), vehicle: saline); 0 of 6 (dose: 84.0 mg/kg/injection, schedule: Q04DX003 (ip), vehicle: saline); 0 of 6 (dose: 100.0 mg/kg/injection, schedule: Q01DX001 (ip), vehicle: saline); 1 of 6 (dose: 100.0 mg/kg/injection, schedule: Q04DX003 (ip), vehicle: saline with Tween-80). Further, the survivor count by setting is: (dose: 200.0 mg/kg/injection, schedule: Q01DX001 (ip), vehicle: saline) 0 of 6; under setting [1], 1 of 6; under setting [2], 0 of 6; under setting [3], 0 of 6.
Consider `C1CN2CCN1CC2.[Cl][Ni+][Cl]`, for which the survivor count reads like this: (dose: 3.12 mg/kg/injection, schedule: Q04DX003 (ip), vehicle: saline) 6 of 6; (dose: 6.25 mg/kg/injection, schedule: Q04DX003 (ip), vehicle: saline) 6 of 6; (dose: 12.5 mg/kg/injection, schedule: Q04DX003 (ip), vehicle: saline) 6 of 6; under setting [4], 4 of 6; (dose: 25.0 mg/kg/injection, schedule: Q04DX003 (ip), vehicle: saline) 6 of 6; (dose: 32.0 mg/kg/injection, schedule: Q04DX003 (ip), vehicle: saline) 4 of 6. In addition, the survivor count runs as follows: (dose: 50.0 mg/kg/injection, schedule: Q04DX003 (ip), vehicle: saline) 3 of 6; (dose: 100.0 mg/kg/injection, schedule: Q04DX003 (ip), vehicle: saline) 0 of 6; under setting [5], 0 of 6; under setting [6], 0 of 6.
Take `CC(Cl)CNC(=O)N(CC(C)Cl)N=O` (stereo not drawn): the survivor count reads like this: (dose: 1500.0 mg/kg/injection, schedule: Q01DX001 (ip), vehicle: carboxymethylcellulose (CMC)) 1 of 6; (dose: 2000.0 mg/kg/injection, schedule: Q01DX001 (ip), vehicle: carboxymethylcellulose (CMC)) 2 of 6.
As to `Nc1nc(SCCc2ccccc2)c2[nH]cnc2n1`, the T/C (dose: 300.0 mg/kg/injection, schedule: Q01DX Z (ip), vehicle: carboxymethylcellulose (CMC)) is 130 % of control; the T/C (dose: 450.0 mg/kg/injection, schedule: Q01DX Z (ip), vehicle: carboxymethylcellulose (CMC)) is 134 % of control; the T/C (dose: 675.0 mg/kg/injection, schedule: Q01DX Z (ip), vehicle: carboxymethylcellulose (CMC)) was 125 % of control.
Turning to `O=Cc1cn(C2CC(O)C(CO)O2)c(=O)[nH]c1=O` (stereo not drawn), the T/C is 130 % of control (dose: 100.0 mg/kg/injection, schedule: Q01DX005 (ip), vehicle: saline); 130 % of control (dose: 100.0 mg/kg/injection, schedule: Q01DX009 (ip), vehicle: Klucel (hydroxypropylcellulose) (HPC)); 128 % of control (dose: 200.0 mg/kg/injection, schedule: Q01DX005 (ip), vehicle: saline); 129 % of control [5 of 6 alive] (dose: 200.0 mg/kg/injection, schedule: Q01DX009 (ip), vehicle: Klucel (hydroxypropylcellulose) (HPC)).
On to `c1ccc([P+](Cc2cccc3c2Cc2ccccc2-3)(c2ccccc2)c2ccccc2)cc1`, for which the survivor count was 3 of 6 (dose: 30.0 mg/kg/injection, schedule: Q01DX001 (ip), vehicle: carboxymethylcellulose (CMC)); 1 of 6 (dose: 60.0 mg/kg/injection, schedule: Q01DX001 (ip), vehicle: carboxymethylcellulose (CMC)); 0 of 6 (dose: 75.0 mg/kg/injection, schedule: Q01DX001 (ip), vehicle: carboxymethylcellulose (CMC)); 1 of 6 (dose: 150.0 mg/kg/injection, schedule: Q01DX001 (ip), vehicle: carboxymethylcellulose (CMC)); 0 of 6 (dose: 300.0 mg/kg/injection, schedule: Q01DX001 (ip), vehicle: carboxymethylcellulose (CMC)).
`C1CC2(CCN1)SSC1(CCNCC1)S2`: the survivor count under setting [7] was 0 of 6.
In the case of `CC(C)C(=O)[O][Sn]([CH2]c1ccccc1)([CH2]c1ccccc1)[CH2]c1ccccc1`, the survivor count is 3 of 6 under setting [1] and 0 of 6 under setting [3].
`CCN1CCC(CCOC)(CN2c3ccccc3Sc3ccc(Cl)cc32)C1` (stereo not drawn): the survivor count is 4 of 6 under setting [5] and 0 of 6 under setting [6].
With `COc1ccc(C(=O)C[N+](=O)[O-])cc1`, the survivor count (dose: 400.0 mg/kg/injection, schedule: Q01DX009 (ip), vehicle: saline with Tween-80) is recorded as 3 of 6.
With `O=C(O)c1cc[c]([Hg][S]c2ncnc3nc[nH]c23)cc1`, the T/C runs as follows: (dose: 12.5 mg/kg/injection, schedule: Q01DX015 (ip), vehicle: saline) 134 % of control; under setting [4], 136 % of control; (dose: 37.5 mg/kg/injection, schedule: Q01DX009 (ip), vehicle: saline) 138 % of control [4 of 5 alive]; (dose: 50.0 mg/kg/injection, schedule: Q01DX Z (ip), vehicle: carboxymethylcellulose (CMC)) 132 % of control. Moreover, the survivor count is given as 0 of 6 (dose: 50.0 mg/kg/injection, schedule: Q01DX015 (ip), vehicle: saline); 3 of 6 (dose: 75.0 mg/kg/injection, schedule: Q01DX001 (ip), vehicle: saline); 0 of 6 (dose: 100.0 mg/kg/injection, schedule: Q01DX015 (ip), vehicle: saline); 0 of 6 (dose: 150.0 mg/kg/injection, schedule: Q01DX001 (ip), vehicle: saline); 0 of 6 (dose: 200.0 mg/kg/injection, schedule: Q01DX Z (ip), vehicle: carboxymethylcellulose (CMC)); 0 of 6 (dose: 300.0 mg/kg/injection, schedule: Q01DX001 (ip), vehicle: saline).
In the case of `CCN(CC)CCOC(=O)C(O)(c1ccccc1)c1ccccc1`, the survivor count is, setting by setting: (dose: 200.0 mg/kg/injection, schedule: Q04DX002 (ip), vehicle: saline) 1 of 3; (dose: 400.0 mg/kg/injection, schedule: Q04DX002 (ip), vehicle: saline) 0 of 3.
Take `CSc1cc(-c2ccc(Cl)cc2)s[s+]1`: the survivor count runs as follows: (dose: 100.0 mg/kg/injection, schedule: Q01DX009 (ip), vehicle: saline with Tween-80) 2 of 6; under setting [1], 0 of 6; under setting [3], 1 of 6.
As for `Nc1nc2ncc(=O)[nH]c2c(=O)[nH]1`, the survivor count under setting [7] is reported as 0 of 6.
Take `Nc1ncc([N+](=O)[O-])s1`: under setting [2], the survivor count is reported as 1 of 4.
Turning to `O=NN(Cc1ccccc1)NC(=O)c1ccccc1`, the survivor count (dose: 400.0 mg/kg/injection, schedule: Q04DX002 (ip), vehicle: gum acacia) is given as 1 of 3.
